Measurements from article PMC4474334.

Chains of the proteins cited; added tags and fusions are not shown. Lines headed by an entry give the natural chain unless they say otherwise; changes in a name come on top. Residues count along the entry.
UniProt P15917, residues 34-809: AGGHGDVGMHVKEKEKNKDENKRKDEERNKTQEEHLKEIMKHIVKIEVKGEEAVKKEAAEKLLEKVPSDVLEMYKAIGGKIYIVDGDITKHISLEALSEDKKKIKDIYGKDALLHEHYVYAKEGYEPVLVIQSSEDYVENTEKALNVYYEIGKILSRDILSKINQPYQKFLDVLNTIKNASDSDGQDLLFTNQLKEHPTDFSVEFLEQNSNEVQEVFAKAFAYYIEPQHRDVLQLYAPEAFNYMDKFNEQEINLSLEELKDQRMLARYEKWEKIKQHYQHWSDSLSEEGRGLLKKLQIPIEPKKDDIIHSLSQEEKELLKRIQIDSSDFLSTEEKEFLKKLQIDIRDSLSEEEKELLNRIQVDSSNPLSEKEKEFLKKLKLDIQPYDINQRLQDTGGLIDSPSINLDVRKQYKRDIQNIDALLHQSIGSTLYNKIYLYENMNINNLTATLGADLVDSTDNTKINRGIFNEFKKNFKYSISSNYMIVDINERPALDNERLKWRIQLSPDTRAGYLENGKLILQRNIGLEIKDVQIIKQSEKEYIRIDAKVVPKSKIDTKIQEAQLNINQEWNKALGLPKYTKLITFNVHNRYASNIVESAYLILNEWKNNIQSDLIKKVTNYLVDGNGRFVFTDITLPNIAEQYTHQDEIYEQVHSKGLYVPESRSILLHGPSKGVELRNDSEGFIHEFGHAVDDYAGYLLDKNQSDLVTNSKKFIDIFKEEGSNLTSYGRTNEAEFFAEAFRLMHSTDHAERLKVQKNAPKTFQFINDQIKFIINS
UniProt Q91VR2: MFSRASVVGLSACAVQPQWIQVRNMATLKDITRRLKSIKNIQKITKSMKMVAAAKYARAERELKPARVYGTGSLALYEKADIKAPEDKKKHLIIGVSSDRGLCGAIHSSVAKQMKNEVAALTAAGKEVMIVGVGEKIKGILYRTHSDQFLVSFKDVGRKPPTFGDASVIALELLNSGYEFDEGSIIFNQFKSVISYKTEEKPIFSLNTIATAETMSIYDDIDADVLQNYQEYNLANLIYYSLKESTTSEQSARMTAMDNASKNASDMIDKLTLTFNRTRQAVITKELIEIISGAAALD

How the values were obtained:
[1] = target: anthrax lethal factor (Bacillus anthracis) (UniProt P15917); assay: co-IP
[2] = target: Mitochondrial ATP synthase H+ transporting F1 complex gamma polypeptide (mouse (endogenous in MH-S and LA-4)) (UniProt Q91VR2); assay: far-Western; only the binder purified

Substance | binding [1] | binding [2]
Mitochondrial ATP synthase H+ transporting F1 complex gamma polypeptide (from UniProt Q91VR2) | binds | 
anthrax lethal factor (from UniProt P15917 34-809) (enzyme) |  | binds

Results are given in words; binding and its absence hold for the method and conditions named. Binding can be weak; no strength is given. For some assays here: In cells and extracts the contact can be indirect.
